# Laboratory results published in the supplement of paper PMC6411743.
# ± gives the standard deviation of the averaged measurements. This is one part of the list.
# Molecular target: T1, UniProt Q9UI30 and related entries
# T1 sequence (whole entry): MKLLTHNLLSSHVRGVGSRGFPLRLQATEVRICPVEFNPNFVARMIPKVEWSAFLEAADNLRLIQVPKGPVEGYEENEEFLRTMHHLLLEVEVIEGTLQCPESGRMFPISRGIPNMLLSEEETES
# Test: NP40-soluble protein abundance relative to vehicle (solubility fold change) (ratio); higher = more soluble protein in presence of GTP
# Procedure: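 Solubility proteome profiling in Jurkat crude lysate. Lysate was treated with Mg-GTP (0.1-10 mM) for 10 min at room temperature and 3 min at 37 °C, then solubilised with 0.8% NP40 and benzonase, followed by ultracentrifugation. Proteins were quantified by TMT10 LC-MS/MS; the value is the NP40-soluble abundance relative to the NP40-processed vehicle, from 3 independent experiments.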
smiles,measurement,setting,value
Nc1nc2c(ncn2[C@@H]2O[C@H](COP(=O)(O)OP(=O)(O)OP(=O)(O)O)[C@@H](O)[C@H]2O)c(=O)[nH]1 [guanosine triphosphate],NP40-soluble protein abundance,concentration: 0.1mM,1 ± 0.13
same,NP40-soluble protein abundance,concentration: 0.5mM,0.979 ± 0.088
same,NP40-soluble protein abundance,concentration: 1mM,1.08 ± 0.13
same,NP40-soluble protein abundance,concentration: 2mM,1.08 ± 0.13
same,NP40-soluble protein abundance,concentration: 4mM,1.03 ± 0.15
same,NP40-soluble protein abundance,concentration: 6mM,1.07 ± 0.12
same,NP40-soluble protein abundance,concentration: 8mM,0.957 ± 0.14
same,NP40-soluble protein abundance,concentration: 10mM,1.04 ± 0.1

# Quoted from the listing for reference:
smiles,measurement,setting,value
Nc1nc2c(ncn2[C@@H]2O[C@H](COP(=O)(O)OP(=O)(O)OP(=O)(O)O)[C@@H](O)[C@H]2O)c(=O)[nH]1 [guanosine triphosphate],NP40-soluble protein abundance,concentration: 2mM,1.08 ± 0.13
same,NP40-soluble protein abundance,concentration: 4mM,1.03 ± 0.15
